## Library screen at single concentrations

The chains behind the UniProt entries cited, without tags or fusion partners. Residues count along the entry.
UniProt P9WFT3, whole entry: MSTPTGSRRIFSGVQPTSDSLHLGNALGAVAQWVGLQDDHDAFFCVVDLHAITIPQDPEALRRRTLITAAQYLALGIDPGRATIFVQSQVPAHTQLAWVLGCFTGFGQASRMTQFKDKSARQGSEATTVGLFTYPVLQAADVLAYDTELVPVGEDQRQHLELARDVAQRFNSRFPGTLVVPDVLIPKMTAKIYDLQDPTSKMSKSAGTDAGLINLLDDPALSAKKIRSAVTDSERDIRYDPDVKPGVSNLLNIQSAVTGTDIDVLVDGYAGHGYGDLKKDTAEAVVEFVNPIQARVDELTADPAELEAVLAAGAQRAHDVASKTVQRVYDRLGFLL
UniProt P9WPC5, whole entry: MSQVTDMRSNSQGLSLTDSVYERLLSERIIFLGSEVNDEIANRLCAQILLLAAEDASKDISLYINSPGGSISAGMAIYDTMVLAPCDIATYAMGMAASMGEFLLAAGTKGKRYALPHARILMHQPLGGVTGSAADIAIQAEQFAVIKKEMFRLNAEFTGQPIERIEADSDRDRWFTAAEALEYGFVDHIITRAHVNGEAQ
UniProt P9WPC3, whole entry partner: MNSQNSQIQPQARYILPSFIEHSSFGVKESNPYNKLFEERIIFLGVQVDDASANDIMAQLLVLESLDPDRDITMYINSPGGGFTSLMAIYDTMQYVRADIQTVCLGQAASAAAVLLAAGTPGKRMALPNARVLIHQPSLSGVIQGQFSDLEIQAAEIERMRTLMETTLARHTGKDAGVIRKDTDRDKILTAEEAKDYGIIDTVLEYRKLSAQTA
UniProt Q4DA54, 1-478: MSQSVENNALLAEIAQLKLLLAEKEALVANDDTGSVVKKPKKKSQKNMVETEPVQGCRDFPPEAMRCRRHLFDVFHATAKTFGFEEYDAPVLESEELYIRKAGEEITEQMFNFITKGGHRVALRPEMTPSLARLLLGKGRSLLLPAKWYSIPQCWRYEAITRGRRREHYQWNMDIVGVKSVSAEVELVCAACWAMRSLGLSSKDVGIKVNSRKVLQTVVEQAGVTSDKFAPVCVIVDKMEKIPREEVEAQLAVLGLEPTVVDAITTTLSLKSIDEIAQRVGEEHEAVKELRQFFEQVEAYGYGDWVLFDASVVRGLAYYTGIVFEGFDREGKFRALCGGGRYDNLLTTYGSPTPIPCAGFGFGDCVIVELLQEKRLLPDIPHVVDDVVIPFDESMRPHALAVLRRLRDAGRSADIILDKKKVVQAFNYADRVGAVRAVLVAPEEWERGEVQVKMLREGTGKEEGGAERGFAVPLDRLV

From ChEMBL document CHEMBL3988442, “University of Dundee, Small-Polar-MMV Screening Library” (2021).

MtTrpRS: 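Tryptophan-tRNA ligase, Mycobacterium tuberculosis (UniProt P9WFT3). Enzyme assay of tryptophanyl-tRNA synthetase; the read-out is not stated. Compounds at 10 µM. Higher most likely means stronger inhibition; the record gives no direction and few retests gave an IC50. Of about 65,000 compounds tested this way, about 64 (0.098%) reached 50% or more in at least one test.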
ClpP1P2: 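ClpP1P2, Mycobacterium tuberculosis (UniProt P9WPC5 and UniProt P9WPC3). Protease assay of ClpP1P2, read by the AMC dye that it sets free. Concentration: 50 µM. Direction is inferred from only a few compounds that gave an IC50; most scored high, so higher reads as stronger inhibition. Most other retested compounds had strongly negative values. About 69,000 compounds were tested under these conditions; 0.015% (about 10) showed 50% or more at least once.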
TcHisRS: 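Enzyme assay of histidyl-tRNA synthetase; the read-out is not stated. Target: Histidine-tRNA ligase, Trypanosoma cruzi CL Brener (UniProt Q4DA54). Tested at 30 µM. Direction is inferred from retests: higher values go with stronger inhibition. About 69,000 compounds were tested under these conditions; 0.045% (about 31) showed 50% or more at least once.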

The filed quantity is “Percent Effect” (%).
How 0% and 100% were set is not recorded. Most values in the screen are low, and negative values occur.
Compounds were drawn at random from those tested, without regard to their results.

With CCOc1ccc(OCCN2CCC(N3CCNC3=O)CC2)cc1 the screen gave MtTrpRS: 1.355%; ClpP1P2: -22.58%; TcHisRS: 4.373%. Result for CCc1cc(CN(C)C(=O)CN2CC(Cc3ccccc3)CC2=O)on1 (stereo not drawn) was MtTrpRS: -0.455%; ClpP1P2: -10.88%; TcHisRS: -1.064%. Result for CC(c1ncc(-c2ccccc2)o1)N1CCN(C(=O)N(C)C)CC1 (stereo not drawn) was MtTrpRS: 5.968%; ClpP1P2: 19.19%; TcHisRS: 7.463%. Result for Cc1cnccc1CN1Cc2ccccc2O[C@]2(CC[C@H](CO)CC2)C1 was ClpP1P2: 10.76%; TcHisRS: 5.556%. O[C@@H]1C[C@@](CNCc2cccc(Cl)c2)(COc2cccnc2)C[C@@H]1O gave MtTrpRS: -3.718%; ClpP1P2: -13.08%; TcHisRS: 3.261%. CN(C)CCN1CCOCC2(CCCN(C(=O)c3ccoc3)C2)C1 (stereo not drawn) gave MtTrpRS: -0.1627%; ClpP1P2: 8.714%; TcHisRS: 5.882%.

Result for COCCNC(=O)N1CCN(C(=O)c2nsc3ccc(C)cc23)CC1 was MtTrpRS: -1.977%; ClpP1P2: -18.84%; TcHisRS: 2.439%. CC(O)CC(C)(C)CNC(=O)NCc1cccc(-n2ccnc2)c1 (stereo not drawn) gave MtTrpRS: -1.676%; ClpP1P2: -1.251%; TcHisRS: -0.8475%. For COCC(=O)N1CCN(Cc2cccnc2)c2ncccc2C1 the result was MtTrpRS: -4.876%; ClpP1P2: -6.782%; TcHisRS: 0%. With CN(C)CCN(C)c1cc(N2CCN(c3ccccn3)CC2)ncn1 the screen gave ClpP1P2: -6.745%; TcHisRS: 5.682%. Result for Cc1cc(C)nc(N2CC=C[C@@H]2C(=O)NCc2ccc3c(c2)OCO3)n1 was MtTrpRS: -2.242%; ClpP1P2: -6.989%; TcHisRS: 3.846%. COc1ncc(C2(O)CCN(Cc3cccs3)CC2)c(OC)n1 read MtTrpRS: -1.417%; ClpP1P2: 7.552%; TcHisRS: 2.151%.

COc1ccc2nnc(CCCC(=O)NCc3ccccc3)n2n1 gave MtTrpRS: -0.4666%; ClpP1P2: -7.164%; TcHisRS: -2.97%. For Cc1cccc(OCCN2CCN(Cc3cnn(CCO)c3)CC2)c1 the result was MtTrpRS: 1.064%; ClpP1P2: -20.02%; TcHisRS: 6.122%. CCN(C)CCNC(=O)Cc1nc(-c2ccco2)oc1C read MtTrpRS: -3.903%; ClpP1P2: 5.721%; TcHisRS: 11.49%. Result for Cn1cnnc1SCC(=O)NC1CC(=O)N(CCc2ccccc2)C1 (stereo not drawn) was MtTrpRS: 0.2447%; ClpP1P2: -15.48%; TcHisRS: 0%. For CCC(NC(=O)C1CCN(S(C)(=O)=O)CC1)c1ccc(C)cc1 (stereo not drawn) the result was MtTrpRS: -1.743%; ClpP1P2: -17.4%; TcHisRS: 4.036%. O=C(Cc1csc(Cc2ccccn2)n1)NCCCN1CCCC1=O gave MtTrpRS: -3.728%; ClpP1P2: 24.83%; TcHisRS: -5.521%.

Result for CCOC(C)C(=O)NCc1cccc(CN2CCCCCC2)c1 (stereo not drawn) was MtTrpRS: -3.152%; ClpP1P2: -11.88%; TcHisRS: 13.68%. For COCC1CN(Cc2cnn(C)c2)Cc2nn(C)cc21 (stereo not drawn) the result was MtTrpRS: 7.672%; ClpP1P2: 4.549%; TcHisRS: 10.74%. For c1ccc(Cc2nc(CN3CCCC3Cn3cncn3)cs2)cc1 (stereo not drawn) the result was MtTrpRS: -3.668%; ClpP1P2: -6.794%; TcHisRS: 17.14%. CN(Cc1noc(C2CC2)n1)C1CCN(CCc2cccs2)C1 (stereo not drawn) read MtTrpRS: 0.1704%; ClpP1P2: -43.17%; TcHisRS: 3.704%. With COc1ccc(N2CCN(C(=O)OC(C)(C)C)C(C(=O)O)C2)cc1 (stereo not drawn) the screen gave MtTrpRS: -4.552%; ClpP1P2: -4.932%; TcHisRS: 6.154%. For O=C([C@H]1C[C@H]2OCC[C@H]2N(C(=O)c2ccccn2)C1)N1CCCCO1 the result was MtTrpRS: -5.045%; ClpP1P2: 6.952%; TcHisRS: 1.961%.

Result for OCC(CO)Nc1ccc2c(Cl)ccc(Cl)c2n1 was MtTrpRS: -0.892%; ClpP1P2: -1.395%; TcHisRS: 5.82%. For O=C1N(CCC2CCCCC2)CCCC1(O)CNCCc1ccccc1 (stereo not drawn) the result was MtTrpRS: -5%; ClpP1P2: -5.129%; TcHisRS: -0.5025%. NCc1cnn(-c2ccccc2C(=O)NCc2ccccn2)c1 read ClpP1P2: -6.703%; TcHisRS: 6.742%. With O=C(NCCn1ccnc1)c1ccn(-c2cccc(F)c2)n1 the screen gave MtTrpRS: -2.632%; ClpP1P2: 2.538%; TcHisRS: 0%. With CSCC(=O)NCc1cc(Br)ccc1OC(F)F the screen gave MtTrpRS: 0.2172%; ClpP1P2: -5.201%; TcHisRS: 10%. Result for COc1nccc(N2CC[C@@H](N3CCC(O)CC3)[C@H](O)C2)c1C#N was MtTrpRS: 8.49%; ClpP1P2: 15.33%; TcHisRS: 2.646%.

Result for CCc1ccc(NS(=O)(=O)CC2=NC(=O)n3cccc3C2=O)cc1 was MtTrpRS: -6.432%; ClpP1P2: 1.386%; TcHisRS: -9.29%. With Cc1occc1C(=O)N1CCC2(CCCN(Cc3nccs3)C2)C1 (stereo not drawn) the screen gave MtTrpRS: 0.08032%; ClpP1P2: -7.054%; TcHisRS: 7.921%. With CC(C)c1cc(CN(C)C(=O)CN2CCC(C(N)=O)CC2)no1 the screen gave MtTrpRS: -0.3236%; ClpP1P2: 3.045%; TcHisRS: 5.941%. CCN(CC1CCCO1)C(=O)Nc1cccc(N2CCOCC2)c1 (stereo not drawn) read MtTrpRS: -4.15%; ClpP1P2: -13.82%; TcHisRS: 5.155%. With O=C(C1CCOC1)N1C[C@H]2CN(Cc3cccc(F)c3)C(=O)[C@H]2C1 (stereo partly drawn) the screen gave ClpP1P2: -3.475%; TcHisRS: 9.548%. Cc1cc(C2CCN(C(=O)c3cnn(C)c3)CC2)ccn1 read ClpP1P2: -3.475%; TcHisRS: 11.7%.

Result for CCc1nc(CN(C)CC(=O)NC(C)C)cs1 was MtTrpRS: 1.089%; ClpP1P2: 1.666%; TcHisRS: 1.98%. For Cc1nn(C)c(C)c1OCC(=O)NCC(O)c1ccsc1 (stereo not drawn) the result was MtTrpRS: 0.6369%; ClpP1P2: -10.12%; TcHisRS: 2.128%. CCC(C)N(Cc1cccnc1)Cc1ccccc1Cn1cccn1 (stereo not drawn) read MtTrpRS: -0.5198%; ClpP1P2: -3.035%; TcHisRS: 6.145%.

The last 4 entries again:

{"structure": "Cc1cc(C2CCN(C(=O)c3cnn(C)c3)CC2)ccn1", "ClpP1P2": -3.475, "TcHisRS": 11.7}
{"structure": "CCc1nc(CN(C)CC(=O)NC(C)C)cs1", "MtTrpRS": 1.089, "ClpP1P2": 1.666, "TcHisRS": 1.98}
{"structure": "Cc1nn(C)c(C)c1OCC(=O)NCC(O)c1ccsc1", "stereo": "stereo not drawn", "MtTrpRS": 0.6369, "ClpP1P2": -10.12, "TcHisRS": 2.128}
{"structure": "CCC(C)N(Cc1cccnc1)Cc1ccccc1Cn1cccn1", "stereo": "stereo not drawn", "MtTrpRS": -0.5198, "ClpP1P2": -3.035, "TcHisRS": 6.145}